Measurements as given in patent publication US20130071410A1 (published 2013).
These are yes or no findings as the source states them, for the method shown. Some binding calls cover weakened binding; strength is not graded here.

The chains behind the UniProt entries cited, without tags or fusion partners. Where a name states a change or a piece, a line headed by the entry shows the natural chain unless it says otherwise.
UniProt Q16602: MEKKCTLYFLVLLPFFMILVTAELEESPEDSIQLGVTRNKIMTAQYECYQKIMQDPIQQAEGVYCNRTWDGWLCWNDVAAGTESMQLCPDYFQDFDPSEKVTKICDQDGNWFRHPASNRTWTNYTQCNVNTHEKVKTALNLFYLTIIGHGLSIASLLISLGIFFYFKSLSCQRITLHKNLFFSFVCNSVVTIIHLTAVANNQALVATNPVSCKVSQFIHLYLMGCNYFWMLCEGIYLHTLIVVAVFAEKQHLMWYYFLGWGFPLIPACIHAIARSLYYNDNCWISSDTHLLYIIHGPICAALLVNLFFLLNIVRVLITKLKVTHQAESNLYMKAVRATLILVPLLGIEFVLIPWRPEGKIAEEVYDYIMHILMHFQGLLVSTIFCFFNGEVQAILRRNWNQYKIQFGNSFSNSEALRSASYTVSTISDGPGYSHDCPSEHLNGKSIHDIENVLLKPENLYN

Biological target: T1, Alexa 647-labeled CGRP8-37 peptide analog
T1 sequence (peptide, N-terminal acetyl (Ac-), C-terminal amide (-NH2), Alexa 647 label): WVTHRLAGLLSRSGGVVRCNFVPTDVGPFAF
Assay: FMAT competition

binding: binds
Substance: soluble heterodimeric CGRP R ECD fused to human IgG1 Fc (from UniProt Q16602 23-138; O60894 27-117) (Fc fusion)
